# According to the supplement of paper PMC7411640:
# The list shows a part of the results. Single values are uncertain here, since repeats match poorly.
# Test system: MDA-MB-468
# Experiment: phospho-S6 immunofluorescence (DAPI-normalised), per-plate z-score; higher = higher phospho-S6 signal (less pathway suppression)
# Settings: 24 h
# Procedure: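 GPCR-targeted compound library (MedChemExpress HY-L006) tested on MDA-MB-468 PTEN-null TNBC cells in 384-well plates at 0.1, 1 or 10 uM, combined with vehicle, GDC0941 450 nM or lapatinib 1 uM, for 24 h. Phospho-S6 (S240/244) immunofluorescence normalised to DAPI and expressed as a per-plate z-score; values are the mean of biological triplicates.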
# [1] = compound 0.1 µM, co-treatment: GDC0941 450 nM
# [2] = compound 0.1 µM, co-treatment: lapatinib 1 uM
# [3] = compound 0.1 µM, co-treatment: vehicle
# [4] = compound 1 µM, co-treatment: GDC0941 450 nM
# [5] = compound 1 µM, co-treatment: lapatinib 1 uM
# [6] = compound 1 µM, co-treatment: vehicle
# [7] = compound 10 µM, co-treatment: GDC0941 450 nM
# [8] = compound 10 µM, co-treatment: lapatinib 1 uM
# [9] = compound 10 µM, co-treatment: vehicle
Structure (SMILES),phospho-S6 immunofluorescence (z-score) [1],phospho-S6 immunofluorescence (z-score) [2],phospho-S6 immunofluorescence (z-score) [3],phospho-S6 immunofluorescence (z-score) [4],phospho-S6 immunofluorescence (z-score) [5],phospho-S6 immunofluorescence (z-score) [6],phospho-S6 immunofluorescence (z-score) [7],phospho-S6 immunofluorescence (z-score) [8],phospho-S6 immunofluorescence (z-score) [9]
CC(C(=O)Nc1cc(C#N)ccc1CCCC(=O)O)c1ccc(F)c2ccccc12 (stereo unspecified),-1.79,0.46,-0.89,-1.12,0.52,-0.88,-3.03,-2.8,-0.03
OCCOCCN1CCN(Cc2cccc(Oc3ccccc3)c2)CC1,-1.45,-0.24,-0.94,-1.1,0.99,0.01,-0.36,0.35,-1.04
O=S(=O)(c1ccccc1)c1cnc2c(N3CCNCC3)cccc2c1,-0.1,-0.81,-0.12,-0.38,-1.47,0.52,0.13,-2.25,0.76
CCn1c2ccccc2c2cc(Nc3ccnc(NCCCN4CCOCC4)n3)ccc21,-0.69,0.3,0.55,-4.47,-3.91,-1.26,-3.59,-8.74,-10.3
